This note sets out measurements from article doi:10.1101/431494.

Holding throughout (assay): SDS-PAGE
Experiment [1] deals with Pyrococcus furiosus encapsulated ferritin domain, residues 1-99, C-terminal StrepII-tagged variant (Pyrococcus furiosus) (UniProt Q8U1L4).
In experiment [2] the target is Rhodospirillum rubrum encapsulated ferritin, hexahistidine-tagged variant (Rhodospirillum rubrum) (UniProt Q2RVS1).
In experiment [3] the target is Rhodospirillum rubrum encapsulated ferritin, Strep-tagged variant (Rhodospirillum rubrum) (UniProt Q2RVS1).

Results are given in words; binding and its absence hold for the method and conditions named. Some results given as binding are weak or reduced against the parent protein; the word gives no strength. Sequences can lack the tags named with a protein.

B1: Pyrococcus furiosus encapsulated ferritin domain, residues 1-99, C-terminal StrepII-tagged variant (domain or fragment, UniProt Q8U1L4 1-99)
chain: MLSINPTLINRDKPYTKEELMEILRLAIIAELDAINLYEQMARYSEDENVRKILLDVAREEKAHVGEFMALLLNLDPEQVTELKGGFEEVKELTGIEAH
In the case of B1, the binding result in experiment [1] is listed as “binds”.

B2: Rhodospirillum rubrum encapsulated ferritin, hexahistidine-tagged variant (protein, UniProt Q2RVS1 1-140)
chain: MAQSSNSTHEPLEVLKEETVNRHRAIVSVMEELEAVDWYDQRVDASTDPELTAILAHNRDEEKEHAAMTLEWLRRNDAKWAEHLRTYLFTEGPITAIEAADTAGEGSGGDAAKGATAQGDGSLGIGSLKGEAALARPPRL
As for B2, the binding result in experiment [2] is given as “binds”.

B3: Rhodospirillum rubrum encapsulated ferritin, Strep-tagged variant (protein, UniProt Q2RVS1 1-140)
chain: B2 chain
On to B3, for which, in experiment [3], the binding result is recorded as “binds”.
